{
  "sequences": {"note": "Chains of the proteins cited; added tags and fusions are not shown. Lines headed by an entry give the natural chain unless they say otherwise; changes in a name come on top.", "UniProt C7C422": "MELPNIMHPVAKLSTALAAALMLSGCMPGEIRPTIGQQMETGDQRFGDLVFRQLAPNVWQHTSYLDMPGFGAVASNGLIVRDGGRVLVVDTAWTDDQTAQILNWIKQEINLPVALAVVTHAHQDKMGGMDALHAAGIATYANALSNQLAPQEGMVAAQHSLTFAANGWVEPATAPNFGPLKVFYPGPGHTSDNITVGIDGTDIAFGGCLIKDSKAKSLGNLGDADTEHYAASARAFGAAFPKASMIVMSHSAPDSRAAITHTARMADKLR"},
  "source": "PubChem BioAssay AID1794844",
  "about": "(National Center for Advancing Translational Sciences (NCATS), 2023)",
  "note": "Fewer than 10 of roughly 2,800 compounds were called active. Not shown: some 7% with an inconclusive outcome. Calls follow the shape of the dose curve; as a rule, active = well fitted inhibition curve with a large enough effect; inconclusive = small, poorly fitted or top-dose-only effect; inactive = no such curve, though single readings can be large or run the other way. Some of the results follow.",
  "data": [
    {"molecular_target": "Metallo-beta-lactamase type 2 (Klebsiella pneumoniae) (UniProt C7C422)", "assay": "qHTS to identify inhibitors of the New Delhi Metallo-beta-lactamase (NDM): Nitrocefin screen against the machine-based learning selections; also: % of control where 0% means no effect.", "conditions": "NDM-1 enzyme, nitrocefin hydrolysis, absorbance 485 nm; activity, negative = inhibition: at the top concentration", "in_short": "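NDM-1 (2 nM final) in 50 mM HEPES pH 7.0, 1 uM Zn2SO4, 0.01% Tween20 was preincubated with compounds for >30 min. Nitrocefin (16.7 uM final) was read at 485 nm after 15 min, and meropenem (50 uM final) at 300 nm after 30 min.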", "values": [
      {"smiles": "Cc1ncc2c(c1CNC(=O)c1ccc3cccnc3c1O)CCNC2", "activity, negative = inhibition": "inactive: 1.05%"},
      {"smiles": "Cc1ccccc1Nc1n[nH]c(C(O)c2cccc(C(F)(F)F)c2)n1", "note": "(stereo not drawn)", "activity, negative = inhibition": "inactive: 3.43% [at 57.5 µM]"},
      {"smiles": "CN(C)c1ccc(C(=O)N2CCN3C(=O)c4cc(-c5ccc6c(c5)OCO6)ccc4NC(=O)[C@H]3C2)cc1", "activity, negative = inhibition": "inactive: -10.3%"},
      {"smiles": "OCc1ccc(-c2cc(-c3ccncc3)c3cncn3c2)cc1", "activity, negative = inhibition": "inactive: 31.6% [at 57.5 µM]"},
      {"smiles": "Cc1ccc2nc(CO[C@H]3CN(Cc4ccc(Cl)cc4)C[C@H]3F)[nH]c2c1", "activity, negative = inhibition": "inactive: 2.27% [at 57.5 µM]"},
      {"smiles": "CC1=C[C@@H](CNC(=O)C2CC2)[C@H](C(C)C)C[C@H]1Cc1nc2ccncc2[nH]1", "activity, negative = inhibition": "inactive: 2.09% [at 57.5 µM]"},
      {"smiles": "COc1cccc(-c2cnc3[nH]cc(CC(=O)NCc4cccnc4)c3c2)c1", "activity, negative = inhibition": "inactive: 3.98% [at 57.5 µM]"},
      {"smiles": "CC1=C[C@@H](CNS(C)(=O)=O)[C@H](C(C)C)C[C@H]1CC(=O)NC1CCCC1", "activity, negative = inhibition": "inactive: 0.347% [at 57.5 µM]"},
      {"smiles": "O=C(NCC1CCOCC1)c1c[nH]c2ccccc12", "activity, negative = inhibition": "inactive: -11.1%"},
      {"smiles": "CC(=O)c1ccc(NC(=O)N[C@H]2CO[C@H]3[C@@H]2OC[C@@H]3n2nnnc2Oc2cccc(N(C)C)c2)cc1", "activity, negative = inhibition": "inactive: -1.96%"},
      {"smiles": "OC1(c2csc(CN3CCc4ccccc4C3)n2)CCN(C2CCOCC2)CC1", "activity, negative = inhibition": "inactive: 2.82% [at 57.5 µM]"},
      {"smiles": "COc1ccccc1C(=O)NCc1nnc2cc(-c3nc(C4CC4)no3)ccn12", "activity, negative = inhibition": "inactive: -6.28%"},
      {"smiles": "CNc1ncc(C(=O)N2CCCC(CC=C(C)C)(C(=O)O)C2)cn1", "note": "(stereo not drawn)", "activity, negative = inhibition": "inactive: -3.1%"},
      {"smiles": "COc1cccc(CN[C@@H]2CCC[C@@H](C(=O)NC3CCOCC3)CC(=O)N(C)C2)c1", "activity, negative = inhibition": "inactive: 6.8% [at 57.5 µM]"},
      {"smiles": "N#Cc1cccnc1N1CCC(NC(=O)c2ccc3cccc(F)c3n2)CC1", "activity, negative = inhibition": "inactive: -2.27%"},
      {"smiles": "COc1ccc(-c2cc(-c3cccc(O)c3)cn3cncc23)cc1", "activity, negative = inhibition": "inactive: -22.7% [at 57.5 µM]"},
      {"smiles": "CN(CCc1ccccn1)[C@@H]1[C@H](O)[C@H](CO)O[C@@H]1CNS(=O)(=O)c1cccs1", "activity, negative = inhibition": "inactive: -3.53%"},
      {"smiles": "COC[C@H]1CCCN1C(=O)[C@@H](C)C1CC[C@@]2(C)CC[C@H](NC(=O)CC(C)(C)C)[C@@H](C)[C@@H]2[C@H]1O", "note": "(stereo partly drawn)", "activity, negative = inhibition": "inactive: -2.54%"},
      {"smiles": "Cn1nccc1C(=O)N1CCC(Cc2nc(C3CCOCC3)no2)CC1", "activity, negative = inhibition": "inactive: 2.9%"},
      {"smiles": "Cc1cc(C)cc(-c2ccc(C(=O)N3CCC(Oc4cccnc4)CC3)cn2)c1", "activity, negative = inhibition": "inactive: 0.58%"},
      {"smiles": "Oc1ccccc1-c1cnc2n[nH]c(-c3ccc4c(c3)OCO4)c2n1", "activity, negative = inhibition": "inactive: 10.3% [at 57.5 µM]"},
      {"smiles": "COc1ccc(-c2cnc3[nH]cc(CC(=O)NCCc4ccccn4)c3c2)cc1", "activity, negative = inhibition": "inactive: 25% [at 57.5 µM]"},
      {"smiles": "Oc1cccc(-c2cc3c(cn2)NCCN(Cc2ccccc2)C3)c1", "activity, negative = inhibition": "inactive: 6.41% [at 57.5 µM]"},
      {"smiles": "CN(C)c1ccc(-c2nnnn2[C@H]2CO[C@H]3[C@@H]2OC[C@@H]3NS(=O)(=O)c2ccc3ccccc3c2)cc1", "activity, negative = inhibition": "inactive: -2.44%"},
      {"smiles": "O=C(NCCCc1nc2ccc(Cl)cc2[nH]1)[C@H]1CCC[C@@H](O)C1", "activity, negative = inhibition": "inactive: 1.17%"},
      {"smiles": "CC(C)(C)c1nnc([C@H]2CCN(C(=O)C3CC3)C2)o1", "activity, negative = inhibition": "inactive: 6.2% [at 76.7 µM]"},
      {"smiles": "Cc1ccccc1N1Cc2c(NCC3CC3)ncnc2N(C)CC1=O", "activity, negative = inhibition": "inactive: -9.86%"},
      {"smiles": "CCN1CC(C(=O)N(C)Cc2ccc(Oc3ccccc3)cc2)CCC1=O", "note": "(stereo not drawn)", "activity, negative = inhibition": "inactive: -0.291%"},
      {"smiles": "O=C1OC[C@@H]2CCN(Cc3ccc4c(c3)OCO4)Cc3ccc(F)cc3N12", "activity, negative = inhibition": "inactive: 8.6% [at 57.5 µM]"},
      {"smiles": "N#Cc1ccc(C(=O)N2C[C@@H]3C[C@H](C2)c2c(/C=C/c4ccc(Cl)cc4)ccc(=O)n2C3)cc1", "activity, negative = inhibition": "inactive: -0.105%"},
      {"smiles": "CCCc1noc(-c2ccn3c(CNC(=O)c4cccc(N(C)C)c4)nnc3c2)n1", "activity, negative = inhibition": "inactive: -1.47%"},
      {"smiles": "CSc1ccc(-c2ccc3c(c2)C(=O)N2CCN(C(=O)CCC(=O)O)C[C@@H]2C(=O)N3)cc1", "activity, negative = inhibition": "inactive: 6.01%"},
      {"smiles": "COCCOc1ncccc1-c1noc([C@@H]2CCCN2CC(C)(C)C)n1", "activity, negative = inhibition": "inactive: 0.0168% [at 57.5 µM]"},
      {"smiles": "c1ccc(-c2ccc3ncc(Nc4cccnc4)n3n2)cc1", "activity, negative = inhibition": "inactive: -0.0667% [at 76.7 µM]"},
      {"smiles": "O=C(C1CC(=O)N(c2n[nH]c3ccccc23)C1)N1CCC(c2nc3ccccc3[nH]2)CC1", "note": "(stereo not drawn)", "activity, negative = inhibition": "inactive: 2.58%"},
      {"smiles": "O=C(Nc1ccccc1Cl)N1CCC(Oc2ncccc2C(=O)N2CCCCC2)C1", "note": "(stereo not drawn)", "activity, negative = inhibition": "inactive: 1.84%"},
      {"smiles": "CS(=O)(=O)c1ccc(CN2C[C@H](O)C[C@H]2c2nc(-c3cnccn3)no2)cc1", "activity, negative = inhibition": "inactive: 0.786% [at 57.5 µM]"},
      {"smiles": "COc1ccc2nc3n(c2c1)[C@@H](CNC(=O)NC(C)C)COC3", "activity, negative = inhibition": "inactive: -2% [at 57.5 µM]"},
      {"smiles": "Cc1ccccc1C(=O)N1C[C@@H](F)C[C@H]1C(=O)N1CCOCC1", "activity, negative = inhibition": "inactive: -0.212%"},
      {"smiles": "Cc1ccc(O)c(CN2CC[C@@H](c3ccc4ccccc4c3)[C@H](O)C2)n1", "activity, negative = inhibition": "inactive: 7.16%"},
      {"smiles": "O=C1CO[C@H](c2ccc(NS(=O)(=O)c3cccc(F)c3)cc2)[C@@H](CO)N1Cc1ccncc1", "activity, negative = inhibition": "inactive: -4.75%"},
      {"smiles": "N#Cc1cccc(NC(=O)O[C@@H]2CO[C@H]3[C@@H]2OC[C@@H]3Nc2nccc(-c3ccc4c(c3)OCO4)n2)c1", "activity, negative = inhibition": "inactive: 9.26%"},
      {"smiles": "COc1cccc(-c2nc3c([nH]2)CN(c2cc(C4CC4)ncn2)CC3)c1", "activity, negative = inhibition": "inactive: 4.21%"},
      {"smiles": "Cc1nnc(CN2CCN(C)C3(CCC(=O)N(CC(=O)O)CC3)C2)o1", "note": "(stereo not drawn)", "activity, negative = inhibition": "inactive: -4.3%"},
      {"smiles": "COc1ccc(CN2C(=O)[C@@H]3C[C@@H](CN3C3COC3)Oc3ccccc32)cc1", "activity, negative = inhibition": "inactive: -4% [at 57.5 µM]"},
      {"smiles": "CN(C)C[C@H]1C[C@@H](CO)CN(C(=O)c2ccccc2OC(F)(F)C(F)F)C1", "activity, negative = inhibition": "inactive: -4.32%"},
      {"smiles": "c1ccc(N2CC3(CN(CC4CC4)CC3CNc3cccnc3)C2)cc1", "note": "(stereo not drawn)", "activity, negative = inhibition": "inactive: 7.54% [at 57.5 µM]"},
      {"smiles": "CC(=O)c1[nH]c(C)c(C(=O)N2CCC3(CC2)[C@H](O)C[C@@H]3OCCO)c1C", "activity, negative = inhibition": "inactive: 3.47%"}
    ]}
  ]
}
